PubChem BioAssay AID1224826, NIAID – 2016

Screen: 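Knock-downs that raise or lower Tnf reporter signal after endotoxin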 (primary screen)
System: RAW264.7 G9 macrophages from mouse bearing reporters for p65 (GFP) and the Tnf promoter (mCherry)
Reagents: siRNA pool against mouse genes, 100 nM
Timing: 16 h of LPS stimulation, after 2 days of siRNA transfection
Conditions: bacterial lipopolysaccharide (Salmonella minnesota R595), 10 ng/ml
Read-out: 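Imaged Tnf reporter mCherry in nuclei, minus background, normalised per plate to the median and expressed as robust z-scores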
Scale: Tnf reporter robust z-score: higher = stronger Tnf promoter reporter signal after LPS
Call rule: 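a well counts as active at a score of -1.3 or below (Tlr4 knock-down control median) or above 3 (raised signal); controls and wells holding fewer than 50 cells are excluded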
Calls: active = Tnf reporter clearly lowered or raised; inactive = no clear change in Tnf reporter
In all, the deposit lists about 17,000 reagents; shown is a random part of them. About 1,110 of them (6.6%) were called active. 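Active means lowered or raised reporter signal; replicate intensities are raw and not normalised per plate.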 Unmarked entries are inactive. The numbers tell different reagents against one gene apart. Further read-outs or replicates are left out here.

{"target gene": "Gys1 (glycogen synthase 1, muscle)", "pool no.": 1, "Tnf reporter robust z-score": -0.82, "fewer than 50 cells in well": "enough cells in well"}
{"target gene": "Gys1 (glycogen synthase 1, muscle)", "pool no.": 2, "Tnf reporter robust z-score": -0.07, "fewer than 50 cells in well": "enough cells in well"}
{"target gene": "Uchl5 (ubiquitin carboxyl-terminal esterase L5)", "pool no.": 1, "Tnf reporter robust z-score": -0.95, "fewer than 50 cells in well": "enough cells in well"}
{"target gene": "Slc10a1", "pool no.": 1, "Tnf reporter robust z-score": 0.31, "fewer than 50 cells in well": "enough cells in well"}
{"target gene": "Myh3 (myosin, heavy polypeptide 3, skeletal muscle, embryonic)", "pool no.": 1, "Tnf reporter robust z-score": -0.97, "fewer than 50 cells in well": "enough cells in well"}
{"target gene": "Snx33 (sorting nexin 33)", "pool no.": 1, "Tnf reporter robust z-score": 0.87, "fewer than 50 cells in well": "enough cells in well"}
{"target gene": "Pigf (phosphatidylinositol glycan anchor biosynthesis, class F)", "pool no.": 1, "Tnf reporter robust z-score": -0.01, "fewer than 50 cells in well": "enough cells in well"}
{"target gene": "Mybpc1 (myosin binding protein C, slow-type)", "pool no.": 1, "Tnf reporter robust z-score": -0.62, "fewer than 50 cells in well": "enough cells in well"}
{"target gene": "Btn1a1 (butyrophilin, subfamily 1, member A1)", "pool no.": 1, "Tnf reporter robust z-score": -0.31, "fewer than 50 cells in well": "enough cells in well"}
{"target gene": "Vsx1 (visual system homeobox 1)", "pool no.": 1, "Tnf reporter robust z-score": 0.09, "fewer than 50 cells in well": "enough cells in well"}
{"target gene": "Adamts4 (ADAM metallopeptidase with thrombospondin type 1 motif 4)", "pool no.": 1, "Tnf reporter robust z-score": 0.36, "fewer than 50 cells in well": "enough cells in well"}
{"target gene": "Klk7", "pool no.": 1, "Tnf reporter robust z-score": 1.46, "fewer than 50 cells in well": "enough cells in well"}

Copied from the list.
Adamts4 (ADAM metallopeptidase with thrombospondin type 1 motif 4), fewer than 50 cells in well → enough cells in well
Slc10a1, Tnf reporter robust z-score = 0.31
